Results: PubChem BioAssay AID493014 (National Center for Advancing Translational Sciences (NCATS), 2011)
The list shows a part of the results. The main result of the screen is listed elsewhere. These columns were measured beside it and carry no call. Compounds called inactive in the main read-out are mostly missing here. Words in brackets tell the shape of the fitted curve; partial curves, single points and poor fits give uncertain potencies.

Assay: qHTS Assay to Find Inhibitors of Chronic Active B-Cell Receptor Signaling
Settings: ABC-DLBCL IkBa-CBG/CBR reporter, luminescence ratio (green luciferase fused to IkBa over red control in TMD8 lymphoma cells), 4 h; measured here: CBR red luminescence, cell number
Procedure, shortened: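 Doxycycline induced both beetle luciferases in TMD8 lymphoma cells; IKK-driven degradation limits the IkappaBalpha-fused green signal, while red luminescence normalises for cell number and nonspecific effects. Compounds tested up to 46 uM, 4 hrs.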

Structure (SMILES)	AC50
CCOC(=O)C1CCN(C(=O)/C=C/c2ccc(OC)cc2)CC1	0.206 µM [falling, full curve]
COc1ccc(NC(=S)N(CCCN2CCCC2)Cc2cccs2)cc1	0.164 µM [rising, full curve, poor fit]
Cc1ccc(NC(=O)CCCc2ccccc2)nc1	35.5 µM [falling, single point]
Cc1ccc(N2C(N)=C(C#N)C(c3cccnc3)C3=C2CCCC3=O)cc1 (centres undefined)	3.55 µM [rising, full curve, poor fit]
Cc1nc2cc(NC(=O)N3CCCCC3)ccc2n1C	32.6 µM [falling, single point]
O=C(Nc1ccc(NC(=O)c2ccco2)nc1)c1ccco1	8.91 µM [falling, partial curve]
CCCCn1c(=N)n(CC(O)c2ccccc2)c2ccccc21 (centres undefined)	35.5 µM [falling, partial curve, poor fit]
O=C1NC(=S)S/C1=C/c1ccc(N2CCOCC2)o1	18.4 µM [falling, single point]
N#CCc1ccc(C(=O)c2ccccc2F)s1	16.4 µM [falling, single point]
O=C(CCCN1C(=O)c2cccc3cccc(c23)C1=O)NCc1ccco1	10 µM [rising, partial curve, poor fit]
CCCCn1c(C(C)O)nc2ccccc21 (centres undefined)	2.24 µM [falling, partial curve, poor fit]
COc1cc(/C=N/NC(=S)NC2CC3CC2C2C=CCC32)ccc1O (centres undefined)	20 µM [falling, single point]
CCCCN(C)C(=O)C1CCN(Cc2ccc(OCc3ccccc3)cc2)CC1	4.61 µM [falling, full curve, poor fit]
CSc1ccccc1C(=O)Nc1cc2c(cc1C(=O)O)OCCCO2	20 µM [falling, partial curve]
CCn1c(=O)c(C2=NS(=O)(=O)c3ccccc3N2)c(O)c2ccccc21	2.51 µM [falling, partial curve, poor fit]
COc1ccccc1-c1nc(COc2ccc(Cl)cc2Cl)no1	11.2 µM [falling, partial curve]
Cc1cc(SCC(=O)OCC(=O)N(C)c2ccccc2)nc2ccccc12	7.31 µM [rising, partial curve, poor fit]
O=C(NCCc1c[nH]c2ccccc12)c1ccccc1	12.6 µM [falling, partial curve]
Cc1ccsc1C(=O)NC(C)c1ccc2c(c1)OCO2 (centres undefined)	20.6 µM [falling, single point]

Rewritten comma-delimited: part of the list above
Structure (SMILES),AC50
CSc1ccccc1C(=O)Nc1cc2c(cc1C(=O)O)OCCCO2,"20 µM [falling, partial curve]"
CCn1c(=O)c(C2=NS(=O)(=O)c3ccccc3N2)c(O)c2ccccc21,"2.51 µM [falling, partial curve, poor fit]"
